These results are taken from US11559590B2 (The General Hospital Corporation, priority 2016, dated 2023).

The data set can be described thus: general procedure: Fmoc solid-phase peptide synthesis. Conditions: whole synthesis, HPLC and mass spectroscopy.

Regarding NOTA-3-Ala-Gly-Gly-Ile-Glu-Phe-Asp-CHO, the “purity (crude or final not stated)” value is “greater than 90%”.
